Test results published in patent US6180103A, “Peptide p277 analogs, and pharmaceutical compositions comprising them for treatment or diagnosis of diabetes” (Yeda Research and Development Co., Ltd., priority 1994, dated 2001).
Not every detail of the peptide structures is certain; ends, links or a residue may be inferred. Ends that are not written are not given here. Peptide text beside a SMILES is read from it.

Legend:
NOD mice = assay: Treatment of NOD mice with p277 or its fragments; conditions: female NOD mice, 50 μg peptide in oil s.c. at 7 weeks of age
female NOD mice = assay: Treatment of NOD female mice with p277 or p277(Lys19); conditions: 100 μg peptide in IFA s.c. at 3 months, scored at 6 months of age

Row | Compound | Status at 40 Weeks: Diabetes, Death (NOD mice) | Diabetes at 6 months: Mortality (female NOD mice) | effect on development of disease (in words) (NOD mice; status at 40 weeks)
1 | NEDQKIGIEIIKRTLKI [p278, Asn-Glu-Asp-Gln-Lys-Ile-Gly-Ile-Glu-Ile-Ile-Lys-Arg-Thr-Leu-Lys-Ile, reference compound] | 90% |  | 
2 | CC[C@H](C)[C@H](NC(=O)[C@H](CS)NC(=O)[C@H](CCCNC(=N)N)NC(=O)[C@H](CC(C)C)NC(=O)[C@H](CC(C)C)NC(=O)[C@H](C)NC(=O)[C@H](CS)NC(=O)CNC(=O)CNC(=O)CNC(=O)[C@H](CC(C)C)NC(=O)[C@@H](N)C(C)C)C(=O)O [p277.N] (H-VLGGGCALLRCI-OH) | 50% |  | 
3 | CC[C@H](C)[C@H](NC(=O)[C@H](CS)NC(=O)[C@H](CCCNC(=N)N)NC(=O)[C@H](CC(C)C)NC(=O)[C@H](CC(C)C)NC(=O)[C@H](C)NC(=O)[C@H](CS)NC(=O)CNC(=O)CNC(=O)CNC(=O)[C@H](CC(C)C)NC(=O)[C@@H](N)C(C)C)C(=O)N1CCC[C@H]1C(=O)N[C@@H](C)C(=O)N[C@@H](CC(C)C)C(=O)N[C@@H](CC(=O)O)C(=O)N[C@@H](CO)C(=O)N[C@@H](CC(C)C)C(=O)N[C@H](C(=O)N1CCC[C@H]1C(=O)N[C@@H](C)C(=O)N[C@@H](CC(N)=O)C(=O)N[C@@H](CCC(=O)O)C(=O)N[C@@H](CC(=O)O)C(=O)O)[C@@H](C)O [p277] (H-VLGGGCALLRCIPALDSLTPANED-OH) | 0% | 10% | completely prevented death
4 | PALDSLTPANED [p277.C] | 40% |  | 
5 | CC[C@H](C)[C@H](NC(=O)[C@H](CS)NC(=O)[C@H](CCCNC(=N)N)NC(=O)[C@H](CC(C)C)NC(=O)[C@H](CC(C)C)NC(=O)[C@H](C)NC(=O)[C@H](CS)NC(=O)CNC(=O)CNC(=O)CNC(=O)[C@H](CC(C)C)NC(=O)[C@@H](N)C(C)C)C(=O)N1CCC[C@H]1C(=O)N[C@@H](C)C(=O)N[C@@H](CC(C)C)C(=O)N[C@@H](CC(=O)O)C(=O)N[C@@H](CO)C(=O)N[C@@H](CC(C)C)C(=O)N[C@@H](CCCCN)C(=O)N1CCC[C@H]1C(=O)N[C@@H](C)C(=O)N[C@@H](CC(N)=O)C(=O)N[C@@H](CCC(=O)O)C(=O)N[C@@H](CC(=O)O)C(=O)O [p277(Lys^19)] (H-VLGGGCALLRCIPALDSLKPANED-OH) |  | 20% | 
